Experimental data: paper PMC12292233, “Effects of 2-Hydroxypropyl-β-Cyclodextrin on the Antioxidant Efficiency of Some Gallic Acid Derivatives in Soybean Oil-in-Water Emulsions” (Antioxidants, 2025)
Several values for one entry are separate records, joined by “and”; a condition that tells them apart may be missing. Equal values may be shown once.

Tests used:
[1] = Inclusion constant with HPCD by steady-state fluorescence (Benesi-Hildebrand); type: physicochemical
[2] = Inclusion constant with HPCD by Higuchi and Connors phase solubility method; type: physicochemical; conditions: no Tween 20, 1:1 complex

| Structure (SMILES) | Kc, inclusion constant with HPCD ([1]; [Tween 20] = 3.9 × 10^−3 M, citric buffer 0.04 M pH 3.5, T = 25 °C) [M⁻¹] | Kc, inclusion constant with HPCD ([1]; no Tween 20, citric buffer 0.04 M pH 3.5, T = 25 °C, n = 1) | Kc, inclusion constant with HPCD [2] |
| --- | --- | --- | --- |
| CCCCCCCCOC(=O)c1cc(O)c(O)c(O)c1 [OG, octyl gallate] | 20 ± 5 | 1946 M⁻¹ and 1946 ± 85 M⁻¹ |  |
| CCCOC(=O)c1cc(O)c(O)c(O)c1 [PG, Propyl gallate] |  |  | 383 M⁻¹ and 383 ± 12 M⁻¹ |
| CCCCOC(=O)c1cc(O)c(O)c(O)c1 [BG, butyl gallate] |  |  | 783 ± 35 M⁻¹ |
